Here are results for one compound from US20120083486A1, “KIT, COMPOSITION, PRODUCT OR MEDICAMENT FOR TREATING COGNITIVE IMPAIRMENT” (ZENYAKU KOGYO KABUSHIKIKAISHA, priority 2008, published 2012).

The experiment concerns scopolamine-induced cognitive impairment. The experiment in a line: passive avoidance task, scopolamine-induced cognitive impairment in mice. The experiment is classed as in vivo. Conditions: scopolamine 1 mg/kg i.p. + 1% CMC, compared with 1% CMC and saline group; P<0.01. On the procedure:
Eight to nine week old male ICR strain mice (Charles River Laboratories Japan, Inc.) were used in the experiment. They were housed in a cage in groups of 3 or 4 mice, in a room maintained at around 22 degree C. under 12 hour light/dark cycles. Food and water were provided ad libitum. All animal care and treatment was conducted in accordance with the Guidelines for the Care and Use of Laboratory Animals, established at the Central Research Laboratory, Zenyaku Kogyo Co., Ltd.
Compound 1 and donepezil were suspended in 1% carboxymethyl cellulose (CMC). […] For the coadministration studies of Compound 1 and donepezil, both drug suspensions were mixed together and this mixed suspension was […]. All drugs were prepared immediately before use and orally administered at a dosage of 10 ml/kg.
The passive avoidance apparatus (Neuroscience Inc.) consisted of an illuminated chamber and a larger dark chamber. Two chambers were separated by a guillotine door. Oral administration of compound 1 at doses of 0.0001 mg/kg or 0.001 mg/kg and/or donepezil at doses of 0.01 and 0.1 mg/kg was given 60 min before the acquisition trial. […] The matched control group only received the vehicle. […] The interval between placement in the illuminated chamber and entry into the dark chamber was measured as step through latency (maximum 300 seconds). […]

Take `CN1[C@@H]2C[C@@H](OC(=O)[C@H](CO)c3ccccc3)C[C@H]1[C@@H]1O[C@@H]12` [scopolamine]: the “step-through latency in retention trial” value is listed as “markedly shorter”.
